These are yes or no findings as the source states them, for the method shown. In cells and extracts the contact can be indirect. A yes stands for co-enrichment or nearness to the bait. Other partners may have been found. Where a sequence is shown, tags or fusion partners need not be part of it.

The target in this assay is T1, CDPK16-6×His (Arabidopsis calcium-dependent protein kinase 16) (Arabidopsis) (UniProt Q7XJR9).
T1 sequence: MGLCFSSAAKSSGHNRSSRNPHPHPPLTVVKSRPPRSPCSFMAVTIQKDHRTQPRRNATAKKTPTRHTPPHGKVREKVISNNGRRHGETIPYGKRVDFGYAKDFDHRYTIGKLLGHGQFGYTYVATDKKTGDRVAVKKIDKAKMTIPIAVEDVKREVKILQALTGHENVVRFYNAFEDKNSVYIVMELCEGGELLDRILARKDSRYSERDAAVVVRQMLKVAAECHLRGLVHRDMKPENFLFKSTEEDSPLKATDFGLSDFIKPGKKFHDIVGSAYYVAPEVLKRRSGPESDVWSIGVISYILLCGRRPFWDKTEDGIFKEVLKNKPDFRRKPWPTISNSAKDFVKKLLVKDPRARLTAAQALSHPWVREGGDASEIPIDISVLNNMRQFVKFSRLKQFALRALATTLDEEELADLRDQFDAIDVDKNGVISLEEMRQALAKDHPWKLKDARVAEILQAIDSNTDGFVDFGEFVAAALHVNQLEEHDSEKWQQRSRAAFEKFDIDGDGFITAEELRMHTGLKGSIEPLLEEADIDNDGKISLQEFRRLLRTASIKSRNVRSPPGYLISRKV
Nature of the assay: affinity purification with mass spectrometry; Ni-NTA agarose bound with CDPK16-6×His incubated with total protein extract of WT pollen; 3 washes with protein extraction buffer; bound proteins separated by 15% SDS-PAGE, gel bands analysed by LC-MS/MS; only the target purified.

B1: ADF7 (Arabidopsis actin-depolymerizing factor 7), endogenous in pollen (protein, UniProt Q67ZM4 1-137)
chain: MANAASGMAVEDECKLKFLELKSKRNYRFIIFRIDGQQVVVEKLGNPDETYDDFTASLPANECRYAVFDFDFITDENCQKSKIFFIAWSPDSSRVRMKMVYASSKDRFKRELDGIQVELQATDPSEMSFDIIKSRAL
For the molecule B1, the binding result is reported as “binds”.

The values above are taken from paper PMC10101649.
